These are yes or no findings as the source states them, for the method shown.

The target of this experiment is barttin-mVenus-PAmCherry (human) (UniProt Q8WZ55). Briefly: native gel or EMSA; high-resolution clear native electrophoresis (hrCNE); lysate of transfected HEK293T cells in 0.1 M sodium phosphate with 0.5% digitonin or 20 mM DDM; 4-14% acrylamide gradient gel run at 4 °C; mVenus fluorescence scanned; VGLUTs and sialin with and without PNGaseF. (In general: A gel shift assay detects complexes by their altered migration in electrophoresis.)

B1: barttin-mVenus-PAmCherry (protein, UniProt Q8WZ55 1-320)
chain: MADEKTFRIGFIVLGLFLLALGTFLMSHDRPQVYGTFYAMGSVMVIGGIIWSMCQCYPKITFVPADSDFQGILSPKAMGLLENGLAAEMKSPSPQPPYVRLWEEAAYDQSLPDFSHIQMKVMSYSEDHRSLLAPEMGQPKLGTSDGGEGGPGDVQAWMEAAVVIHKGSDESEGERRLTQSWPGPLACPQGPAPLASFQDDLDMDSSEGSSPNASPHDREEACSPQQEPQGCRCPLDRFQDFALIDAPTLEDEPQEGQQWEIALPNNWQRYPRTKVEEKEASDTGGEEPEKEEEDLYYGLPDGAGDLLPDKELGFEPDTQG
Regarding B1, the binding entry is on record as “no binding”.

The values above are taken from publication PMC9584609.
